Experimental data taken from article PMC3349726.

Tests used:
[1] = target: N-HRB1 (N-terminal half of HRB1 fused to the GAL4 DNA binding domain) (Arabidopsis thaliana); assay: two-hybrid; quantitative yeast two-hybrid assay (beta-galactosidase activity); baits in pGBKT7, preys in pGADT7; transformants selected on SD medium lacking Trp and Leu
[2] = target: GAL4 DNA binding domain alone (GBD); assay: pull-down; in vitro immuno-precipitation: GBD or GBD:HRB1 from E. coli total extract captured with anti-GAL4 BD antibody on protein A/G agarose and washed, then incubated with in vitro translated 35S-labelled PP7 at 4 C for 2 hours; 1x PBS pH 7.5, 0.1% NP40; autoradiography; only the target …

Binder | binding [1] | binding [2]
AD-PP7 (full-length Protein Phosphatase 7 fused to the GAL4 activation domain) (enzyme, UniProt Q9FN02 1-413) METVPPSPITWPDGGALTNDWVHGLMSCFEWSSWNLPPSQLPSLLPVNVFDSLVLTAHKILHKERNCVHIDDLDSVSNVVVVGDIHGQLHDLLFLLKDTGFPCQNRCYVFNGDYVDRGAWGLETFLVLLSWKVLMPDRVYLLRGNHESKYCTSMYGFEKEVLTKYGDKGKHVYRKCLGCFEGLPLASIISGRVYTAHGGLFRSPVLPKRTTRGKKNRRVVLLEPEPSSMKLGTLDELMQARRSVLDPPWEGSNLIPGDVLWSDPSMTPGLSPNEQRGIGLLWGPDCTEDFLKKYELKLIIRSHEGPDAREKRTGLGGMDNGYTIDHNVESGKLITIFSAPDYPQFQATEERYKNKGAYIILQAPDFSDPQFHSFEAVKPRPKAHPYYDFENVIDSDDEMDKSAMDTNNEQPNS | binds | –
PP7m (PP7 with a D to A change at amino acid position 116, fused to the GAL4 activation domain) (enzyme, UniProt Q9FN02 1-413) METVPPSPITWPDGGALTNDWVHGLMSCFEWSSWNLPPSQLPSLLPVNVFDSLVLTAHKILHKERNCVHIDDLDSVSNVVVVGDIHGQLHDLLFLLKDTGFPCQNRCYVFNGDYVARGAWGLETFLVLLSWKVLMPDRVYLLRGNHESKYCTSMYGFEKEVLTKYGDKGKHVYRKCLGCFEGLPLASIISGRVYTAHGGLFRSPVLPKRTTRGKKNRRVVLLEPEPSSMKLGTLDELMQARRSVLDPPWEGSNLIPGDVLWSDPSMTPGLSPNEQRGIGLLWGPDCTEDFLKKYELKLIIRSHEGPDAREKRTGLGGMDNGYTIDHNVESGKLITIFSAPDYPQFQATEERYKNKGAYIILQAPDFSDPQFHSFEAVKPRPKAHPYYDFENVIDSDDEMDKSAMDTNNEQPNS | binds | –
PP7 produced in a TnT in vitro transcription and translation system (enzyme, UniProt Q9FN02 1-413, radiolabeled with 35S-methionine) METVPPSPITWPDGGALTNDWVHGLMSCFEWSSWNLPPSQLPSLLPVNVFDSLVLTAHKILHKERNCVHIDDLDSVSNVVVVGDIHGQLHDLLFLLKDTGFPCQNRCYVFNGDYVDRGAWGLETFLVLLSWKVLMPDRVYLLRGNHESKYCTSMYGFEKEVLTKYGDKGKHVYRKCLGCFEGLPLASIISGRVYTAHGGLFRSPVLPKRTTRGKKNRRVVLLEPEPSSMKLGTLDELMQARRSVLDPPWEGSNLIPGDVLWSDPSMTPGLSPNEQRGIGLLWGPDCTEDFLKKYELKLIIRSHEGPDAREKRTGLGGMDNGYTIDHNVESGKLITIFSAPDYPQFQATEERYKNKGAYIILQAPDFSDPQFHSFEAVKPRPKAHPYYDFENVIDSDDEMDKSAMDTNNEQPNS | – | no binding

These are yes or no findings as the source states them, for the method shown. For part of these data: Binding can be weak; no strength is given. For part of these data: Sequences can lack the tags named with a protein. For part of these data: In cells and extracts the contact can be indirect.
